# Experimental data taken from article PMC11483529.
# The chains behind the UniProt entries cited, without tags or fusion partners. Residues count along the entry.
# UniProt Q04206: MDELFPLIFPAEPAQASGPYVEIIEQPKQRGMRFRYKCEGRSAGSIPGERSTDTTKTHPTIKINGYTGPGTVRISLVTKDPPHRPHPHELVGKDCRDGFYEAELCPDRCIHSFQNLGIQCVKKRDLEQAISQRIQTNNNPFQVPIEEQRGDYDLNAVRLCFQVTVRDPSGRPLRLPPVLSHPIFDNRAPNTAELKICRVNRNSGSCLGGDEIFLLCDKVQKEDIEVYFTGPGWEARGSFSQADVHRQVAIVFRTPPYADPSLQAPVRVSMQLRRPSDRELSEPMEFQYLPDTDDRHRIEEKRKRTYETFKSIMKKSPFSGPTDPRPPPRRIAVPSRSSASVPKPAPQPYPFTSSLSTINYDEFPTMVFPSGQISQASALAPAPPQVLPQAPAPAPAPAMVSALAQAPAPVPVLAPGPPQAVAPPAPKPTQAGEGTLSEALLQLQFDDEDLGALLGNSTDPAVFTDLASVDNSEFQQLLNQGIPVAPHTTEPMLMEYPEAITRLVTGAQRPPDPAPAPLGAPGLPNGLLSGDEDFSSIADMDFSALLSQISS
# UniProt P08047: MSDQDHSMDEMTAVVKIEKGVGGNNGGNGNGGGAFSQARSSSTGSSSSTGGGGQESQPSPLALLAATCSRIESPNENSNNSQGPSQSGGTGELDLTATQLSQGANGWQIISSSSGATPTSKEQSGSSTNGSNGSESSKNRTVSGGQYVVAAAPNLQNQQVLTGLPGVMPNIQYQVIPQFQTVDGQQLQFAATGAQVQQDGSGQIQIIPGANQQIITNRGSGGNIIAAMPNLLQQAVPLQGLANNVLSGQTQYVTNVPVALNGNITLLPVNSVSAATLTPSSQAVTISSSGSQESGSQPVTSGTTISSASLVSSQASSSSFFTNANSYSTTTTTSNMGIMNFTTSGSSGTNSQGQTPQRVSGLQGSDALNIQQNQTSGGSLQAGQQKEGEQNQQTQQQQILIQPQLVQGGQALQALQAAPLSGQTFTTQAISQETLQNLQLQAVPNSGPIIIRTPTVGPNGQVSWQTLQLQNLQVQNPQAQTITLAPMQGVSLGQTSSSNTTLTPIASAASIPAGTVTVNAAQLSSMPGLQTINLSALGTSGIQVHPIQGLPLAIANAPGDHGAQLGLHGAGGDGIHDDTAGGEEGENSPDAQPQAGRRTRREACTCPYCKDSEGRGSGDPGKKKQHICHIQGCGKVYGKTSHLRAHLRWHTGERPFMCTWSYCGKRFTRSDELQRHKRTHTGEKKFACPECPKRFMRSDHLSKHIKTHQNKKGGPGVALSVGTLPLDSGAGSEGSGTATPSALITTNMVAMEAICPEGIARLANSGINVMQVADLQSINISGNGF
# UniProt P19838, residues 1-433: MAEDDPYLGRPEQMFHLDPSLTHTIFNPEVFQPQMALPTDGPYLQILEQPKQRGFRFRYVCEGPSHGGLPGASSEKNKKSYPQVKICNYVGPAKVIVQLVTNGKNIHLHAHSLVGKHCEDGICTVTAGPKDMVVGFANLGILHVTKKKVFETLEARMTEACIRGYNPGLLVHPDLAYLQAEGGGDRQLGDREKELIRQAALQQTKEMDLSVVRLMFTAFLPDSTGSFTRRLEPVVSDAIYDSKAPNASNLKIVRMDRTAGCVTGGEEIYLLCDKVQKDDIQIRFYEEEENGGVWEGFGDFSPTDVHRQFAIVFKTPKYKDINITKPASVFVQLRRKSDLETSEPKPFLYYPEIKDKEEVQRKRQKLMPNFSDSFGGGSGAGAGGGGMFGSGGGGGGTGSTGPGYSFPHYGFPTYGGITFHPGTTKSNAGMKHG
# Results are given in words; binding and its absence hold for the method and conditions named. For some of these results: Binding seen in cells or lysates may run through a third protein. Some results given as binding are weak or reduced against the parent protein; the word gives no strength.
# T1: RelB (ectopically expressed in LNCaP cells) (human) (UniProt Q01201)
# T1 sequence: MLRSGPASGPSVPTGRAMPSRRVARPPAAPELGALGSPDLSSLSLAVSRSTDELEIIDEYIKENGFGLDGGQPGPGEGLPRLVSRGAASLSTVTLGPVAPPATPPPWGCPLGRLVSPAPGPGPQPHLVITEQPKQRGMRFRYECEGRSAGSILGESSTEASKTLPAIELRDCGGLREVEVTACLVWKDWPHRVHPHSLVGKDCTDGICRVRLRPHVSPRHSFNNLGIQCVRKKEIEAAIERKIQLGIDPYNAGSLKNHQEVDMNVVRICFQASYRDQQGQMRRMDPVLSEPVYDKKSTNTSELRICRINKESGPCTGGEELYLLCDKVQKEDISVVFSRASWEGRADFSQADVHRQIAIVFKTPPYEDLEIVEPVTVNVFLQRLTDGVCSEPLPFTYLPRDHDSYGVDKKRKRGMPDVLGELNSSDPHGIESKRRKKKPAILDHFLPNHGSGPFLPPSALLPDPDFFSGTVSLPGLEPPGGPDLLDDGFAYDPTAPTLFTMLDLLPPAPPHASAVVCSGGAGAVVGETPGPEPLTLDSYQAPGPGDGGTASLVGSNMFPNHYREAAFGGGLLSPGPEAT
# T2: RelB (human (endogenous in PC-3)) (UniProt Q01201)
# T2 sequence: T1 sequence
# T3: RelB-GAL4 (human) (UniProt Q01201)
# T3 sequence: T1 sequence
# B1: p52 (protein, UniProt Q00653 1-454)
# chain: MESCYNPGLDGIIEYDDFKLNSSIVEPKEPAPETADGPYLVIVEQPKQRGFRFRYGCEGPSHGGLPGASSEKGRKTYPTVKICNYEGPAKIEVDLVTHSDPPRAHAHSLVGKQCSELGICAVSVGPKDMTAQFNNLGVLHVTKKNMMGTMIQKLQRQRLRSRPQGLTEAEQRELEQEAKELKKVMDLSIVRLRFSAFLRASDGSFSLPLKPVISQPIHDSKSPGASNLKISRMDKTAGSVRGGDEVYLLCDKVQKDDIEVRFYEDDENGWQAFGDFSPTDVHKQYAIVFRTPPYHKMKIERPVTVFLQLKRKRGGDVSDSKQFTYYPLVEDKEEVQRKRRKALPTFSQPFGGGSHMGGGSGGAAGGYGGAGGGGSLGFFPSSLAYSPYQSGAGPMGCYPGGGGGAQMAATVPSRDSGEEAAEPSAPSRTPQCEPQAPEMLQRAREYNARLFGLA
# B2: NFATc1 (protein, UniProt O95644 1-943)
# chain: MPSTSFPVPSKFPLGPAAAVFGRGETLGPAPRAGGTMKSAEEEHYGYASSNVSPALPLPTAHSTLPAPCHNLQTSTPGIIPPADHPSGYGAALDGGPAGYFLSSGHTRPDGAPALESPRIEITSCLGLYHNNNQFFHDVEVEDVLPSSKRSPSTATLSLPSLEAYRDPSCLSPASSLSSRSCNSEASSYESNYSYPYASPQTSPWQSPCVSPKTTDPEEGFPRGLGACTLLGSPRHSPSTSPRASVTEESWLGARSSRPASPCNKRKYSLNGRQPPYSPHHSPTPSPHGSPRVSVTDDSWLGNTTQYTSSAIVAAINALTTDSSLDLGDGVPVKSRKTTLEQPPSVALKVEPVGEDLGSPPPPADFAPEDYSSFQHIRKGGFCDQYLAVPQHPYQWAKPKPLSPTSYMSPTLPALDWQLPSHSGPYELRIEVQPKSHHRAHYETEGSRGAVKASAGGHPIVQLHGYLENEPLMLQLFIGTADDRLLRPHAFYQVHRITGKTVSTTSHEAILSNTKVLEIPLLPENSMRAVIDCAGILKLRNSDIELRKGETDIGRKNTRVRLVFRVHVPQPSGRTLSLQVASNPIECSQRSAQELPLVEKQSTDSYPVVGGKKMVLSGHNFLQDSKVIFVEKAPDGHHVWEMEAKTDRDLCKPNSLVVEIPPFRNQRITSPVHVSFYVCNGKRKRSQYQRFTYLPANVPIIKTEPTDDYEPAPTCGPVSQGLSPLPRPYYSQQLAMPPDPSSCLVAGFPPCPQRSTLMPAAPGVSPKLHDLSPAAYTKGVASPGHCHLGLPQPAGEAPAVQDVPRPVATHPGSPGQPPPALLPQQVSAPPSSSCPPGLEHSLCPSSPSPPLPPATQEPTCLQPCSPACPPATGRPQHLPSTVRRDESPTAGPRLLPEVHEDGSPNLAPIPVTVKREPEELDQLYLDDVNEIIRNDLSSTSTHS
# B3: NFAT1c-VP16 (protein, UniProt O95644 1-943)
# chain: B2 chain
# Experiments:
# [1] = target: T1, RelB (ectopically expressed in LNCaP cells) (human); test: co-IP; ChIP: chromatin from RelB-overexpressing LNCaP cells precipitated with a RelB antibody (IgG as negative control, PTL as inhibitor); proteins in the precipitate by immunoblot
# [2] = target: RelA (human (endogenous in PC-3)) (UniProt Q04206); test: proximity ligation; Duolink PLA in PC-3 cells on glass slides with primary antibodies against Sp1 and NF-κB family members; read at 24 and 48 h; parthenolide (PTL) used as inhibitor
# [3] = target: T2, RelB (human (endogenous in PC-3)); test: as above
# [4] = target: T2, RelB (human (endogenous in PC-3)); test: as above; remark: listed apart in the source
# [5] = target: T2, RelB (human (endogenous in PC-3)); test: co-IP; ChIP: chromatin from PC-3 cells precipitated with a RelB antibody; proteins in the precipitate by immunoblot
# [6] = target: T3, RelB-GAL4 (human); test: two-hybrid; CheckMate mammalian two-hybrid: RelB-GAL4 and NFAT1c-VP16 co-transfected with a GAL4-TATA luciferase reporter; luciferase normalised to β-gal
molecule,measurement,setting,value
Sp1 (in LNCaP cells) (from UniProt P08047 1-785),binding,[1],binds
p50 (from UniProt P19838 1-433),binding,[2],binds
Sp1 (from UniProt P08047 1-785),binding,[2],binds
same,binding,[3],binds
B1,binding,[4],binds
B2,binding,[5],binds
B3,binding,[6],binds
